Data taken from PMC9106661.

By UniProt entry, the sequences of proteins in these tests, tags left out.
UniProt Q96H55: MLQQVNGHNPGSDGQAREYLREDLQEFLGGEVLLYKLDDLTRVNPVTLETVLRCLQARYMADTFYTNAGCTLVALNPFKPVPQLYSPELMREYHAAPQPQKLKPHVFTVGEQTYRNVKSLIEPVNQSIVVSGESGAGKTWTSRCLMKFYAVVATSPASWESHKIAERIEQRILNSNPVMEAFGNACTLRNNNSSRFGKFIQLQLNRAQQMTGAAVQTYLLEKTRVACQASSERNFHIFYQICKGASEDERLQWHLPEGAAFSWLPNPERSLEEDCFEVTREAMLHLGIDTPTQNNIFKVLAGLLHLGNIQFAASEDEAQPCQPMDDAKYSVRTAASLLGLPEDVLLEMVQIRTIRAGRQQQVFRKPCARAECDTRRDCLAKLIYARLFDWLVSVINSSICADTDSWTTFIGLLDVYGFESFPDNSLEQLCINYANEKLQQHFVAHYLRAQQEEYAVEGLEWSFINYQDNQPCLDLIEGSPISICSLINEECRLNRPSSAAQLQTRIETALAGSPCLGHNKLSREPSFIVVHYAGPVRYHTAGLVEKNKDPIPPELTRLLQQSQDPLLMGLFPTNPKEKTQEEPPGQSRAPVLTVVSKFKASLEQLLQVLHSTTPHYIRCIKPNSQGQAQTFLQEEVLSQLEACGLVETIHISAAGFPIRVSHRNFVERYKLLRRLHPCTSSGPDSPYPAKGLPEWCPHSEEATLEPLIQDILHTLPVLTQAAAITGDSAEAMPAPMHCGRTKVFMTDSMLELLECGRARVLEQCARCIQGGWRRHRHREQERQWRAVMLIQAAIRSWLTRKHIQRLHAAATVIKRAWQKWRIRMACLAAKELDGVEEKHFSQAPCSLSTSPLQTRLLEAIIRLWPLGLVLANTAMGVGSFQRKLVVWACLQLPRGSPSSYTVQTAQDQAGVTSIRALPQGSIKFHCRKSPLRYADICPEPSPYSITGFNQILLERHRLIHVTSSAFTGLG

Target: Myosin 19 (human (endogenous in MDA-MB-231)) (UniProt Q96H55)
Test: affinity purification with mass spectrometry; immunoprecipitation of Myo19 from cell lysate (IP lysis buffer: 150 mM NaCl, 25 mM Tris-HCl, 0.5% NP-40, pH 7.4), protein A/G beads, gel pieces analysed by mass spectrometry

binding: binds
B1: Metaxin3 (protein, UniProt Q5HYI7 1-312)
chain: MAAPLELSCWGGGWGLPSVHSESLVVMAYAKFSGAPLKVNVIDNTWRGSRGDVPILTTEDDMVSQPAKILNFLRKQKYNADYELSAKQGADTLAYIALLEEKLLPAVLHTFWVESDNYFTVTKPWFASQIPFPLSLILPGRMSKGALNRILLTRGQPPLYHLREVEAQIYRDAKECLNLLSNRLGTSQFFFGDTPSTLDAYVFGFLAPLYKVRFPKVQLQEHLKQLSNLCRFCDDILSSYFRLSLGGISPAGQETVDANLQKLTQLVNKESNLIEKMDDNLRQSPQLPPRKLPTLKLTPAEEENNSFQRLSP

binding: binds
B2: Sam50 (protein, UniProt Q9Y512 1-469)
chain: MGTVHARSLEPLPSSGPDFGGLGEEAEFVEVEPEAKQEILENKDVVVQHVHFDGLGRTKDDIIICEIGDVFKAKNLIEVMRKSHEAREKLLRLGIFRQVDVLIDTCQGDDALPNGLDVTFEVTELRRLTGSYNTMVGNNEGSMVLGLKLPNLLGRAEKVTFQFSYGTKETSYGLSFFKPRPGNFERNFSVNLYKVTGQFPWSSLRETDRGMSAEYSFPIWKTSHTVKWEGVWRELGCLSRTASFAVRKESGHSLKSSLSHAMVIDSRNSSILPRRGALLKVNQELAGYTGGDVSFIKEDFELQLNKQLIFDSVFSASFWGGMLVPIGDKPSSIADRFYLGGPTSIRGFSMHSIGPQSEGDYLGGEAYWAGGLHLYTPLPFRPGQGGFGELFRTHFFLNAGNLCNLNYGEGPKAHIRKLAECIRWSYGAGIVLRLGNIARLELNYCVPMGVQTGDRICDGVQFGAGIRFL

No constants are given. Whether binding was seen depends on the method and setting. Binding seen in cells or lysates may run through a third protein. Here binding means that the protein was enriched with, or labelled near, the bait; the list need not be complete. One block for each binder: values may come before it.
